Experimental data from article PMC9732331.

Amino acid sequences for entries named in this document (tags omitted). A change or cut given only in a name is not applied to a line headed by its entry.
UniProt Q9UM11: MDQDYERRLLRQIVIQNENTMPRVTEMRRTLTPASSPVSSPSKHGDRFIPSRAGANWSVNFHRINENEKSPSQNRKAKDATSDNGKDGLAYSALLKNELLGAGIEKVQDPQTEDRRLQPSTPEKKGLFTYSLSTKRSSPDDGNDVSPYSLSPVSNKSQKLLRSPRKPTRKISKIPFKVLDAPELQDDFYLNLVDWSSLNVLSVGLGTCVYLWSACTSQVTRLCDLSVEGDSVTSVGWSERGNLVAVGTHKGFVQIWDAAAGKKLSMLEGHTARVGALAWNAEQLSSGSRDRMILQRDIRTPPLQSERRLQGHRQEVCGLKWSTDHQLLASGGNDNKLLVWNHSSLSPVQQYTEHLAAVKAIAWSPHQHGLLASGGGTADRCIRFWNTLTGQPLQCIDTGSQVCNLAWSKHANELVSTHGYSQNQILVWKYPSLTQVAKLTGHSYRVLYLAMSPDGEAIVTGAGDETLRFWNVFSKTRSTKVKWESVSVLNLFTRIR
UniProt Q6J9G0: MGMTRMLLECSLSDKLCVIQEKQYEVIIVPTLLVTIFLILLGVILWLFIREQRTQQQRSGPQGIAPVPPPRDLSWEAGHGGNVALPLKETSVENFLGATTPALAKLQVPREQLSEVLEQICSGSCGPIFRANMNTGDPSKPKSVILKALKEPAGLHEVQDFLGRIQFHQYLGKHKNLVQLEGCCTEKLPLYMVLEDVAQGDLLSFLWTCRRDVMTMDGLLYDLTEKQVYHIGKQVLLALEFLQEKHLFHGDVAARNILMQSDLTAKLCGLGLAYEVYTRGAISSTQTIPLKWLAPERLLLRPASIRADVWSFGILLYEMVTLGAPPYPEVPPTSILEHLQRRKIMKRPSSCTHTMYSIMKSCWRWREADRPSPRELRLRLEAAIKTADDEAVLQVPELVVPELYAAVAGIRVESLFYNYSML

Target: FLAG-tagged CDH1 (UniProt Q9UM11)
Test: co-IP; HEK293T cells co-transfected with FLAG-CDH1 and STYK1/NOK or its mutants or truncated forms, 10 μM MG132 for 4 h before harvesting; about 2000 μg lysate with anti-FLAG affinity gel at 4 °C overnight, washed 6 times with 1xPBS, immunoblot

Substance	binding
STYK1/NOK D-box deleted mutant ΔD2 (from UniProt Q6J9G0)	binds
STYK1/NOK D-box deleted mutant ΔD3 (from UniProt Q6J9G0)	binds

Next, values leading:

binding	Substance
binds	STYK1/NOK D-box deleted mutant ΔD5 (from UniProt Q6J9G0)
binds	STYK1/NOK D-box deleted mutant ΔD1 (from UniProt Q6J9G0)
binds	STYK1/NOK truncated form with both termini removed (kinase domain) (from UniProt Q6J9G0) (domain or fragment)
binds	STYK1/NOK D-box deleted mutant ΔD4 (from UniProt Q6J9G0)

These are yes or no findings as the source states them, for the method shown. In cells and extracts the contact can be indirect. A result given as binding can be weak or reduced; the word gives no strength.
